From publication doi:10.1101/2022.06.22.497281

What was measured:
Test in all cases: co-IP
[1] = biological target: GFP-tagged AAEL004859 (Aedes aegypti)
[2] = biological target: GFP-tagged Dhx15 (AAEL004419) (Aedes aegypti) (UniProt Q17CT5)
[3] = biological target: GFP-tagged Dhx15 (AAEL004419) (Aedes aegypti) (UniProt Q17CT5); remark: listed apart in the source

Measured: binding

Flag-tagged AAEL008728 (from UniProt Q16XX2)
binds: [1] | [2] | [3]

Read-outs that look alike come from different tables or passages of the source. Results are given in words; binding and its absence hold for the method and conditions named. Binding seen in cells or lysates may run through a third protein. Binding can be weak; no strength is given.
